According to PubChem BioAssay AID504444 (National Center for Advancing Translational Sciences (NCATS), 2011):
About 7,500 (2.1%) of roughly 360,000 compounds were called active. Inconclusive means that the source gave no clear call. Such entries were picked first, then a sample of the others. Calls come from the whole dose curve; as a rule, active = well fitted inhibition curve with a large enough effect; inconclusive = small, poorly fitted or top-dose-only effect, or effect the other way; inactive = flat fitted curve, though single readings scatter. A potency beside an inconclusive call is a rough fit, not a confirmed value.

Assay: Nrf2 qHTS screen for inhibitors; note: nearly all actives have a fitted effect of over 60% in size
Conditions: A549 ARE-Fluc reporter, luciferase luminescence, 18-24 h; series mostly up to 46 µM
Summary of the method: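 Quantitative HTS in A549 cells stably bearing an antioxidant response element-firefly luciferase construct. Inhibition of Nrf2-driven transcription was scored by luminescence after 18-24 h of compound exposure at 37 °C.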
Potency is the fitted concentration of half-maximal effect.

Compound	Potency
O=C(Cn1cc(S(=O)(=O)Cc2ccc(F)cc2)c2ccccc21)NCCc1ccccc1	inactive
CCCNC(=O)c1ccccc1NC(=O)COc1ccc(OC)cc1	inactive
COc1ccc(/C=N/N2CCN(c3ccccc3)CC2)cc1Br	inconclusive: 7.31 µM [falling, partial curve, poor fit]
Cc1cc(OCC(=O)N(C)Cc2ccccc2)ccc1Br	inconclusive: 6.51 µM [activator, single point]
Cc1cc(C(=O)NNC(=O)c2ccc(Cl)cc2)no1	inactive
COc1ccc(-c2nc3c(n2O)CCC/C3=N\O)cc1	inconclusive: 25.9 µM [activator, single point]
C=CCn1c(SCC(=O)c2cc(C)n(Cc3cccs3)c2C)nnc1-c1ccncc1	inactive
Cc1cccnc1CCNC(=O)CC1C(=O)NCCN1CC1CCCCC1 (stereo not given)	active: 23.1 µM
Cc1ccccc1CNC(=O)c1c(C)oc2c1C1=NCCN1C=N2	inconclusive: 4.11 µM [activator, full curve, poor fit]
COc1cccc(NC(=O)COC(=O)c2c3c(nc4ccccc24)CCC(C)C3)c1 (stereo not given)	active: 16.4 µM
Cc1onc(-c2ccccc2Cl)c1C(=O)Nc1ccccc1C(N)=O	inconclusive: 29.1 µM [falling, partial curve, poor fit]
C/C(=N\OCc1cccc(C(=O)O)c1)c1ccc(Cl)cc1	inconclusive: 0.326 µM [activator, full curve]
O=C(Nc1nc(-c2cc(Cl)sc2Cl)cs1)c1ccccc1	inconclusive: 29.1 µM [falling, single point]
CCOc1cc(C(N)=O)cc(Br)c1OCC	inconclusive: 14.6 µM [falling, partial curve, poor fit]
CCC1(C)Cc2c(sc3nc(SC)n(Cc4ccccc4)c(=O)c23)CO1 (stereo not given)	inconclusive: 9.2 µM [activator, partial curve]
COc1ccc(-c2cc(C)no2)cc1S(=O)(=O)Nc1cccc(C)c1	active: 23.1 µM
COc1cccc(N2CCN(C(=O)C3CCCN(S(=O)(=O)c4ccc(Br)s4)C3)CC2)c1 (stereo not given)	active: 16.4 µM
O=C(Nc1ccncc1)c1cc2ccccc2cc1O	inconclusive: 14.6 µM [activator, partial curve, poor fit]
COc1ccc(CN(C(=O)c2snc(C(N)=O)c2N)C(CC(C)C)C(=O)NC2CCCCC2)cc1 (stereo not given)	inconclusive: 18.4 µM [falling, single point]
CC(=O)N1CCN(c2ccc(Oc3ncnc4sccc34)cc2)CC1	inconclusive: 16.4 µM [falling, partial curve]
CCCCc1ccc(NC(=O)CC(C)C)cc1	inconclusive: 16.4 µM [activator, partial curve]
CCOc1ccc(CN2CCNC(=O)C2CC(=O)NCCCC2CCCC2)cc1 (stereo not given)	inconclusive: 32.6 µM [activator, partial curve, poor fit]
Cc1cccc(CC2(O)C(=O)Nc3ccccc32)n1 (stereo not given)	inactive
Cc1ccc(C(=O)Nc2ncccc2S(=O)(=O)c2ccccc2)cc1	inconclusive: 10.3 µM [activator, partial curve]

Compound	Potency
CCOC(=O)C1(Cc2cccc(OC)c2)CCN(Cc2ccccc2)CC1	inactive
Cc1ccc(N2C(=O)C3C4C=CC(CNC(=S)Nc5ccc(Cl)cc5)(O4)C3C2=O)cc1 (stereo not given)	inconclusive: 23.1 µM [falling, partial curve, poor fit]
O=c1c2ccccc2nnn1Cc1cccc2ccccc12	inconclusive: 2.06 µM [falling, partial curve, poor fit]
COc1ccc(-c2cccc(-c3cc(=O)oc4cc(OC)cc(OC)c34)c2)cc1	inconclusive: 0.259 µM [activator, full curve]
O=C(Cc1sc(-c2ccccc2)nc1-c1ccccc1)Nc1ccccc1	inconclusive: 10.3 µM [falling, partial curve, poor fit]
CCn1nc(C)c(NC(=O)c2cnn3c(C(F)F)cc(-c4ccccc4)nc23)c1C	inconclusive: 13 µM [falling, partial curve]
CCOc1cc(NC(=S)NCC2CCCO2)c(OCC)cc1NC(=O)c1ccccc1F (stereo not given)	inconclusive: 14.6 µM [falling, partial curve, poor fit]
COc1ccc(-n2nnnc2-c2cccnc2)cc1	inactive
O=C(CN1CCN(c2ccc(O)cc2)CC1)Nc1cc(S(=O)(=O)N2CCCCC2)ccc1Cl	inconclusive: 16.4 µM [falling, single point]
COc1ccc(/C=N/NC(=O)c2ccoc2C)cc1COc1ccc(Cl)cc1	active: 13 µM
Cn1c(=S)[nH]c2c(c1=O)C(C)(C)Cc1ccccc1-2	inactive
COc1ccc(-c2noc(C3CCCN(C(=O)CCc4ccccc4)C3)n2)cc1 (stereo not given)	inconclusive: 29.1 µM [falling, single point]
CN1C(=O)/C(=C/c2ccco2)SC1=Nc1ccc(N2CCOCC2)cc1	inactive
COc1ccc2cc(CCC(C)=O)ccc2c1	inconclusive: 13 µM [activator, partial curve]
COc1ccc(S(=O)(=O)N(Cc2nc(-c3ccc(C)cc3)no2)C2CCCCC2)cc1	inactive
Cc1ccc(CC(=O)Nc2nc3c(s2)CCCC3)cc1	inconclusive: 7.31 µM [activator, partial curve]
O=S1(=O)N=C(Oc2ccccc2C(F)(F)F)c2ccccc21	inconclusive: 11.6 µM [activator, partial curve]
S=c1[nH]nc(C2CCCCC2)n1/N=C/c1ccncc1	inconclusive: 20.6 µM [falling, single point]
O=C(O)c1ccc(COc2ccc3ccccc3c2)o1	inconclusive: 9.2 µM [activator, partial curve]
O=C1[C@@H]2CSC(c3ccc(F)cc3)N2C(=O)N1c1ccc(Cl)cc1 (stereo not given in full)	inactive
O=C(/C=C/Nc1ccc(F)cc1F)c1cccs1	inconclusive: 32.6 µM [falling, single point]
Cc1cc(S(=O)(=O)NCc2ccncc2)c(C)cc1Br	active: 4.11 µM
COc1ccc(CNC(=O)c2cccc(N3CCCS3(=O)=O)c2)cc1	inactive
Cc1onc(-c2ccccc2)c1C(=O)NC(=S)NNC(=O)c1ccc(O)cc1O	active: 7.31 µM

Of the compounds above, 4 have a furan ring, fused or not.
Compound	Potency
Cc1ccccc1CNC(=O)c1c(C)oc2c1C1=NCCN1C=N2	inconclusive: 4.11 µM [activator, full curve, poor fit]
COc1ccc(/C=N/NC(=O)c2ccoc2C)cc1COc1ccc(Cl)cc1	active: 13 µM
CN1C(=O)/C(=C/c2ccco2)SC1=Nc1ccc(N2CCOCC2)cc1	inactive
O=C(O)c1ccc(COc2ccc3ccccc3c2)o1	inconclusive: 9.2 µM [activator, partial curve]

Further structures

Compound	Potency
CC1CN(Cc2ccccc2)c2ccccc2NC1=S (stereo not given)	inactive
Cc1ccc(-n2c(SCC(=O)N(C)C3CCS(=O)(=O)C3)nc3ccccc3c2=O)c(C)c1 (stereo not given)	inconclusive: 25.9 µM [falling, partial curve, poor fit]
COc1cc(/C=N/Nc2ccccn2)ccc1O	inconclusive: 18.4 µM [activator, single point]
CCc1cc(-c2n[nH]c(CCC(=O)O)c2-c2nc3ccccc3n2C)c(O)cc1O	inconclusive: 29.1 µM [activator, single point]
CC(=O)N(CCC(Cc1ccccc1)c1ccc2c(c1)OCO2)Cc1ccc(Cl)cc1 (stereo not given)	inconclusive: 29.1 µM [falling, single point]
COc1cccc(OC)c1-c1nn2c(-c3cc(-c4ccccc4)n[nH]3)nnc2s1	inconclusive: 13 µM [falling, partial curve, poor fit]
O=C(CC1SC(N2CCCC2)=NC1=O)Nc1ccc(C(=O)Nc2ncccc2O)cc1 (stereo not given)	inactive
Cc1ccc(N/C=C/C(=O)c2ccccc2)cc1Br	inconclusive: 3.66 µM [activator, partial curve]
N/C(=N\OC(=O)C(c1ccccc1)c1ccccc1)c1ccncc1	inconclusive: 20.6 µM [activator, partial curve, poor fit]
CCOc1ccc(CCNC(=O)c2cccc(S(=O)(=O)N3CCCCC3)c2)cc1OCC	inconclusive: 23.1 µM [falling, single point]
CC(=O)c1ccc(NC(=O)c2ccc(CSc3ccccc3)o2)cc1	inconclusive: 18.4 µM [falling, single point]
Cc1ccc(N2CCN(c3nc4ccc(C)cc4n4nnnc34)CC2)c(C)c1	inconclusive: 23.1 µM [activator, single point]
O=C(NCC(c1cccnc1)N1CCc2ccccc21)c1ccccc1Br (stereo not given)	inconclusive: 32.6 µM [activator, single point]
CCOC(=O)c1sc(NC(=O)c2c(C)nn(Cc3ccccc3)c2C)cc1C	inconclusive: 20.6 µM [falling, single point]
O=c1[nH]c2ccccc2nc1C(F)(F)F	inconclusive: 13 µM [falling, partial curve, poor fit]
O=C(NC(Cc1c[nH]c2ccccc12)C(=O)N/N=C/c1ccc(Br)cc1)c1cccs1 (stereo not given)	inconclusive: 20.6 µM [falling, partial curve, poor fit]
O=C(Cn1ccc2ccccc2c1=O)NCCC(=O)Nc1cccc(Cl)c1	inconclusive: 20.6 µM [falling, partial curve, poor fit]
Cc1nonc1NC(=O)Nc1cccnc1	inconclusive: 25.9 µM [falling, partial curve, poor fit]
COc1cc2c(-c3ccccc3C)nc3c(c(C)nn3-c3ccccc3)c2cc1OC	inactive
CCCCC(=O)Nc1cccc(-c2nc3ncccc3o2)c1	inconclusive: 0.291 µM [falling, partial curve, poor fit]
NC(=S)N1N=C(c2ccccc2)CC1=O	inconclusive: 0.0073 µM [falling, full curve, poor fit]
CN(C)C(=O)CCc1ccc2c3c([nH]c2c1)[C@]1(CCC2CCCC2)[C@@H](C(=O)N2CCOCC2)C[C@H](CC(=O)NCCc2ccccn2)C(=O)N1CC3	inactive

Random excerpt: 2 entries already listed
Compound	Potency
CCOc1ccc(CCNC(=O)c2cccc(S(=O)(=O)N3CCCCC3)c2)cc1OCC	inconclusive: 23.1 µM [falling, single point]
CC(=O)N(CCC(Cc1ccccc1)c1ccc2c(c1)OCO2)Cc1ccc(Cl)cc1 (stereo not given)	inconclusive: 29.1 µM [falling, single point]
